# From PMC11616693
# By UniProt entry, the sequences of proteins in these tests, tags left out. Where a name states a change or a piece, a line headed by the entry shows the natural chain unless it says otherwise.
# UniProt P06756: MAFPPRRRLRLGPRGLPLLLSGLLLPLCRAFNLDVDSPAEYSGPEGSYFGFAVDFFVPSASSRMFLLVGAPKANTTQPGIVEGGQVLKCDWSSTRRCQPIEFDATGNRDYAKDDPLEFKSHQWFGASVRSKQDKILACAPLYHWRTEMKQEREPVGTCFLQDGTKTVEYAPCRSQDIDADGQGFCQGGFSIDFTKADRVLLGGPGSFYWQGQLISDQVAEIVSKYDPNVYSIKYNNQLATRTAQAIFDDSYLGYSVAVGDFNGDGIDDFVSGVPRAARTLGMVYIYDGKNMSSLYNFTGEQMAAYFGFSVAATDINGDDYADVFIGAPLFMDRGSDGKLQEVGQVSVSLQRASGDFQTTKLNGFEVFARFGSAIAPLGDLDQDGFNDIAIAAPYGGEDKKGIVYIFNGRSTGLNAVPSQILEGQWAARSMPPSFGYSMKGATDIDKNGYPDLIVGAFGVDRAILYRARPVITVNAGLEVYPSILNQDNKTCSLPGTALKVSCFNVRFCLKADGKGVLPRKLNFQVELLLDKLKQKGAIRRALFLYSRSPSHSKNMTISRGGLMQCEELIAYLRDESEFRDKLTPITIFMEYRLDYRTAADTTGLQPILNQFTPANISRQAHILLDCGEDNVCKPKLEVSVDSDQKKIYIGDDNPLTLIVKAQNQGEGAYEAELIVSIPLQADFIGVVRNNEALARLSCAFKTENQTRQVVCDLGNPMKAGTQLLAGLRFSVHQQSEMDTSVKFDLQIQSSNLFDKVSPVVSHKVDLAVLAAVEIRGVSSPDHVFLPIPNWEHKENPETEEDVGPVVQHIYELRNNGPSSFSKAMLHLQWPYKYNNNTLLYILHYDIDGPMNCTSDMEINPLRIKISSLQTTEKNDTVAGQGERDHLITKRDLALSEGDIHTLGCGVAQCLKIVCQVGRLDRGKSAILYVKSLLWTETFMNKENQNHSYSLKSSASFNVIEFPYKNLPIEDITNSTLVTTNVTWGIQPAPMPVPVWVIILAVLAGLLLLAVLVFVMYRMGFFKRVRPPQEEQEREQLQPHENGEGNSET
# Target: αVβ6 integrin (human (endogenous in BT474 and HER2-18)) (UniProt P06756)
# Test: isolation of integrin adhesion complexes (IACs) with immunoblotting; IACs isolated from BT474 cells on LAP, FN and Coll-I after DTBP cross-linking and removal of cell bodies; immunoblot
substance,measurement,value
vinculin (from UniProt P18206-2),binding,binds

# These are yes or no findings as the source states them, for the method shown. Binding can be weak; no strength is given.
